Results reported in article PMC12720080.
No constants are given. Whether binding was seen depends on the method and setting. Binding seen in cells or lysates may run through a third protein. Some entries that bind do so weakly or less than the wild type. Sequences can lack the tags named with a protein.

By UniProt entry, the sequences of proteins in these tests, tags left out.
UniProt O00308: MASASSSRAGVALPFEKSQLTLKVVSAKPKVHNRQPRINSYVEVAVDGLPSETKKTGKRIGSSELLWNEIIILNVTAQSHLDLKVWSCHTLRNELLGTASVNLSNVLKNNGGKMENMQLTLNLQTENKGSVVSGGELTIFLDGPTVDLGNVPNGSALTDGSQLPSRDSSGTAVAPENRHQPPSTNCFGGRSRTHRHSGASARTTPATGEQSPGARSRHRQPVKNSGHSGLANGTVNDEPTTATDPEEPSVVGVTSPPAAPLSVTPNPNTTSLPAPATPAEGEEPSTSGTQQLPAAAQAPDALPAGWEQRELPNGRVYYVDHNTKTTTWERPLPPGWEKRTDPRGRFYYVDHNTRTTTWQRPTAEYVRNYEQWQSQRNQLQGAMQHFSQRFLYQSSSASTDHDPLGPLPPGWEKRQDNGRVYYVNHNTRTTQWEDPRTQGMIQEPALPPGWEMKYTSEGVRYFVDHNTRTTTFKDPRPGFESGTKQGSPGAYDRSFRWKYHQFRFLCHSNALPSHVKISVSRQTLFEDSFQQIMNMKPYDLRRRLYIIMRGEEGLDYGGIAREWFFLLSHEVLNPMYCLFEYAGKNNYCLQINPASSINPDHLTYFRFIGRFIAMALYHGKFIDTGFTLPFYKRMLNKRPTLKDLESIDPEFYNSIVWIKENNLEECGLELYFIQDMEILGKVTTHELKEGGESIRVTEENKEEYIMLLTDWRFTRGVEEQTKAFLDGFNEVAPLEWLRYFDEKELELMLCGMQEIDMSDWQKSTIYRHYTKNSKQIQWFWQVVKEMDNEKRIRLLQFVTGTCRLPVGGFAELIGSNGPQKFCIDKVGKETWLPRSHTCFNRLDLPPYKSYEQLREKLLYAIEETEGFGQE

Target: HA-WWP2 (full length, wild type) (UniProt O00308)
Assay: co-IP; HEK293T (WT or TMEM127-/-) co-transfected; post-nuclear supernatant on anti-HA agarose 2 h at 4 °C (HA-WWP2 as bait); lysis 0.5% Triton-X-100, 150 mM NaCl, 50 mM Tris-Cl pH 7.4, 5 mM EDTA, 5% glycerol; immunoblot

Row | binding | Binder
1 | binds | FLAG-NDFIP2 (wild type) (protein, UniProt Q9NV92 1-336) MARRRSQRVCASGPSMLNSARGAPELLRGTATNAEVSAAAAGATGSEELPPGDRGCRNGGGRGPAATTSSTGVAVGAEHGEDSLSRKPDPEPGRMDHHQPGTGRYQVLLNEEDNSESSAIEQPPTSNPAPQIVQAASSAPALETDSSPPPYSSITVEVPTTSDTEVYGEFYPVPPPYSVATSLPTYDEAEKAKAAAMAAAAAETSQRIQEEECPPRDDFSDADQLRVGNDGIFMLAFFMAFIFNWLGFCLSFCITNTIAGRYGAICGFGLSLIKWILIVRFSDYFTGYFNGQYWLWWIFLVLGLLLFFRGFVNYLKVRNMSESMAAAHRTRYFFLL
2 | binds | FLAG-NDFIP2 Y151A (protein, UniProt Q9NV92 1-336) MARRRSQRVCASGPSMLNSARGAPELLRGTATNAEVSAAAAGATGSEELPPGDRGCRNGGGRGPAATTSSTGVAVGAEHGEDSLSRKPDPEPGRMDHHQPGTGRYQVLLNEEDNSESSAIEQPPTSNPAPQIVQAASSAPALETDSSPPPASSITVEVPTTSDTEVYGEFYPVPPPYSVATSLPTYDEAEKAKAAAMAAAAAETSQRIQEEECPPRDDFSDADQLRVGNDGIFMLAFFMAFIFNWLGFCLSFCITNTIAGRYGAICGFGLSLIKWILIVRFSDYFTGYFNGQYWLWWIFLVLGLLLFFRGFVNYLKVRNMSESMAAAHRTRYFFLL
3 | binds | FLAG-NDFIP2 Y151A;Y177A (protein, UniProt Q9NV92 1-336) MARRRSQRVCASGPSMLNSARGAPELLRGTATNAEVSAAAAGATGSEELPPGDRGCRNGGGRGPAATTSSTGVAVGAEHGEDSLSRKPDPEPGRMDHHQPGTGRYQVLLNEEDNSESSAIEQPPTSNPAPQIVQAASSAPALETDSSPPPASSITVEVPTTSDTEVYGEFYPVPPPASVATSLPTYDEAEKAKAAAMAAAAAETSQRIQEEECPPRDDFSDADQLRVGNDGIFMLAFFMAFIFNWLGFCLSFCITNTIAGRYGAICGFGLSLIKWILIVRFSDYFTGYFNGQYWLWWIFLVLGLLLFFRGFVNYLKVRNMSESMAAAHRTRYFFLL
4 | binds | FLAG-NDFIP2 Y186A (protein, UniProt Q9NV92 1-336) MARRRSQRVCASGPSMLNSARGAPELLRGTATNAEVSAAAAGATGSEELPPGDRGCRNGGGRGPAATTSSTGVAVGAEHGEDSLSRKPDPEPGRMDHHQPGTGRYQVLLNEEDNSESSAIEQPPTSNPAPQIVQAASSAPALETDSSPPPYSSITVEVPTTSDTEVYGEFYPVPPPYSVATSLPTADEAEKAKAAAMAAAAAETSQRIQEEECPPRDDFSDADQLRVGNDGIFMLAFFMAFIFNWLGFCLSFCITNTIAGRYGAICGFGLSLIKWILIVRFSDYFTGYFNGQYWLWWIFLVLGLLLFFRGFVNYLKVRNMSESMAAAHRTRYFFLL
5 | binds | FLAG-NDFIP2 Y177A (protein, UniProt Q9NV92 1-336) MARRRSQRVCASGPSMLNSARGAPELLRGTATNAEVSAAAAGATGSEELPPGDRGCRNGGGRGPAATTSSTGVAVGAEHGEDSLSRKPDPEPGRMDHHQPGTGRYQVLLNEEDNSESSAIEQPPTSNPAPQIVQAASSAPALETDSSPPPYSSITVEVPTTSDTEVYGEFYPVPPPASVATSLPTYDEAEKAKAAAMAAAAAETSQRIQEEECPPRDDFSDADQLRVGNDGIFMLAFFMAFIFNWLGFCLSFCITNTIAGRYGAICGFGLSLIKWILIVRFSDYFTGYFNGQYWLWWIFLVLGLLLFFRGFVNYLKVRNMSESMAAAHRTRYFFLL
